Data from article PMC12040169 (PLOS Biology, 2025).
The list shows a part of the results.

test system: T1, CTL2-GFP (C. trachomatis L2/434/Bu, GFP-expressing); design: species or system HeLa; Intracellular C. trachomatis growth in HeLa cells, bulk GFP fluorescence relative to DMSO; conditions: bulk GFP, single well; 28.5 h, 10 µM; inhibitor
T1 construct: L2/434/Bu, GFP-expressing

Structure (SMILES) | % of control remaining [%]
Oc1cccc2c1OCO2 [CBK000070] | 120.455
O=C(NC[C@H]1O[C@@H](CC(=O)N2CCCC2)[C@H](O)[C@@H]1O)c1ccc(F)c(Cl)c1 [CBK288913] | 113.669
O=C(CCc1cccnc1)Nc1ccc(Oc2ccccc2)cc1 [CBK295168] | 134.315
CCNC(=O)CN1CCN(c2ccc(C#N)cc2C(F)(F)F)CC1 [CBK306112] | 129.69
COc1cccc(/C=N\NC(=O)CN2CCN(Cc3ccccc3)CC2)c1O [CBK263106] | 94.4122
NNc1nccc(Nc2ccccc2C(=O)O)n1 [CBK263145] | 85.7861
COC(=O)c1cccc2c1CCCN2Cc1nnc(C2CC2)o1 [CBK304868] | 118.722
O=c1[nH]c(=O)c2cc(S(=O)(=O)Nc3cccc(CCc4ccncc4)c3)ccc2[nH]1 [CBK286397] | 126.313
Cc1nnc(SCC(=O)NC2CC3CCC2C3)[nH]1 (stereo not shown) [CBK270239] | 140.392
O=C1CCN(Cc2ccccc2)CCN1C(=O)C1CCCC1 [CBK284829] | 141.064
O=[N+]([O-])c1ccc(N2CCN(S(=O)(=O)N3CCCC3)CC2)c(Cl)c1 [CBK264772] | 118.604
c1ccc(COc2ccc3[nH]c4c(c3c2)CCNC42CCN(Cc3ccccc3-c3ccccc3)C2)cc1 (stereo not shown) [CBK039909] | 100.604
O=C(O)c1ccc(Sc2ccc(S(=O)(=O)c3ccc(C(=O)O)c(C(=O)O)c3)cc2)cc1 [CBK261253] | 101.23
CCc1nn(CC(=O)N(CC)CC)c(=O)c2cc3ccsc3n12 [CBK284132] | 92.9667
CCC(CO)Nc1nccnc1-c1ccoc1 (stereo not shown) [CBK088756] | 189.36
CCOC(=O)c1sc(NC(=O)C2CCCO2)c(C(N)=O)c1C (stereo not shown) [CBK058830] | 159.745
CCN(CCC(C)c1ccccc1)CCN(C)C (stereo not shown) [CBK261914] | 100
Fc1ccc(-c2nccnc2NCc2ccncc2)cc1Cl [CBK037422] | 123.378
Cc1cc(COc2nc3ccccc3nc2NCCC2=CCCCC2)no1 [CBK173982] | 118.919
Cc1ccc(Br)cc1S(=O)(=O)N1CCN(C(c2ccccc2)c2ccccc2)CC1 [CBK263433] | 125.633
Sc1nnc(COc2ccccc2)n1/N=C/c1ccccn1 [CBK265279] | 105.352
COC[C@@H]1OC[C@@]2(C)C3CC[C@@H](O)[C@@H](CC(=O)NCc4ccccc4)[C@]3(C)CC[C@H]2O1 (stereo partly shown) [CBK289574] | 133.509

Another view of some results above.
Structure (SMILES)	% of control remaining [%]
O=C1CCN(Cc2ccccc2)CCN1C(=O)C1CCCC1 [CBK284829]	141.064
O=[N+]([O-])c1ccc(N2CCN(S(=O)(=O)N3CCCC3)CC2)c(Cl)c1 [CBK264772]	118.604
